We go through one substance from US20070178045A1 (priority 2004, published 2007).

A short description of the series: general procedure: Fmoc solid-phase peptide synthesis; Fmoc-Gly-Res. The conditions noted are these: whole synthesis, scale 0.69 mmol.

As to c[Arg-Gly-Asp-D-Phe-Aad), the isolated mass was 187 mg.
